Here are results for one molecule from patent publication US20160251386A1 (published 2016).

The target of the experiment is free tagged factor (16 kD form) released from the cofactor in U2OS-pESY1c conditioned medium by high salt and ultrafiltration (chicken (Gallus gallus)). Kind of experiment: SDS gel and Western blot, self-association (dimer band). Background: Immunoblotting shows a protein as a band on a membrane.

Results are given in words; binding and its absence hold for the method and conditions named. Some binding calls cover weakened binding; strength is not graded here. Tags and fused reporters may be left off the sequences shown.

B1: free tagged factor (16 kD form) released from the cofactor in U2OS-pESY1c conditioned medium by high salt and ultrafiltration (protein)
chain: EPLAVVDLRPQSSVKVEVHFQDKVEEMSIRLDQTVAELKKHLKTVVQLSTSNMLLFYLDQEAPFGPEEMKYSSRALHSYGIRDGDKIYVEPRMKSNSADIQHSGGRSSLEGPRFEQKLISEEDLNMHTGHHHHHH
Consider B1, for which the binding entry is “binds”.
